Experimental data taken from patent US10765763B2, “Radioligands for myelin” (CASE WESTERN RESERVE UNIVERSITY, priority 2016, dated 2020).
Some entries share one result that the patent states for a list of compounds.

System: myelin
Test: In vitro tissue staining and fluorescent intensity ratio (FIR), Example 1
Type: binding
Conditions: 1 mM, 25 min, mouse brain sections, gcc vs cortex

Row | SMILES | fluorescent intensity ratio (FIR) white matter vs gray matter
1 | CNc1ccc(/C=C/c2ccc(N)c(OCCF)c2)cc1 [Compound 32, (E)-4-(4-Amino-3-(2-fluoroethoxy)styryl)-N-methylaniline] | > 2
2 | CC(C)Nc1ccc(/C=C/c2ccc(N)c(OCCF)c2)cc1 [Compound 35, (E)-4-(4-Amino-3-(2-fluoroethoxy)styryl)-N-isopropylaniline] | > 2
